Data as given in PubChem BioAssay AID504804 (Drosophila RNAi Screening Center, 2011).
Test: 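Fly genes whose loss lessens doxorubicin-driven cell death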 (primary screen). System: Drosophila Kc cells. Reagents: long dsRNA against Drosophila genes, 0.5 µg dsRNA per well. Timing: 96 h (48 h knock-down, then 48 h drug). Treatment: doxorubicin 5 µg/ml for 48 h, added 48 h after dsRNA. Measurement: 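Luminescent ATP counts per replicate, not normalised, reflecting viable cells after 48 h dsRNA knock-down followed by 48 h of 5 µg/ml doxorubicin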. Scale: raw ATP luminescence: higher = more viable cells, protection from doxorubicin. Rule for the call: 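Active when both duplicate wells lie at least 2 SD above the plate mean and protection is confirmed by rescreening and independent dsRNAs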.
The deposit covers about 19,000 reagents; this is a random part of those that have a named target and a result. Of all reagents, 47 (0.25%) got an active call. 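Signals are raw, not normalised; exact z-scores behind calls not deposited; actives needed confirmation, so some wells reaching 2 SD are inactive.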 Entries without a mark were called inactive. A plus sign joins genes that one reagent is predicted to hit.

Target gene	DRSC id	SD above plate mean	raw ATP luminescence, replicate 1	raw ATP luminescence, replicate 2
mil (milkah)	DRSC15696		60540	45620
RpL22-like (Ribosomal protein L22-like)	DRSC04582		46370	43737
scramb1 (scramblase 1)	DRSC09724		67903	71310
scramb1 (scramblase 1)	DRSC10667		67707	68523
scramb1 (scramblase 1)	DRSC10668		71327	70047
CG14053	DRSC17908		45820	62780
Pp1-13C (Protein phosphatase 1 at 13C)	DRSC20269		1.55e5	1.84e5
CG42286 (retired record)	DRSC14357		50420	43013
rdhB (retinol dehydrogenase B)	DRSC16190		43643	47347
CG15096	DRSC06525		97333	83930
mIF2 (mitochondrial translation initiation factor 2)	DRSC14510		60680	45860
His3:CG33818 + His3:CG33857 + His3:CG33806 + 20 more	DRSC21267		1.32e5	1.07e5
CG17807	DRSC04296		58420	59357
bbg (big bang)	DRSC11077		50057	45210
bbg (big bang)	DRSC11079		42957	39043
TwdlB (TweedleB)	DRSC16050		32090	44430
CG31769	DRSC01361		2.10e5	2.01e5
comm2	DRSC09881		44373	42703
comm2	DRSC10877		45350	41167
CG34193	DRSC05665		1.69e5	1.14e5
Ocho	DRSC11239	2 to 3 SD above plate mean	1.23e5	79947
CG30373	DRSC05081		77157	86063
CG31269	DRSC15744		65570	67400
Hsc70-1 (Heat shock protein 70 cognate 1)	DRSC11185		63833	53017
LManI (Lysosomal alpha-mannosidase I)	DRSC02838		38490	72623
lncRNA:CR32657 (long non-coding RNA:CR32657)	DRSC19403		3.14e5	2.88e5
COX7B (Cytochrome c oxidase subunit 7B)	DRSC10895		35200	22840
Veneno	DRSC16537		45590	41107
CG13130 (retired record)	DRSC02226		57957	64877
DhpD (Dihydropterin deaminase)	DRSC12288		20307	24587
Wdr92 (WD repeat domain 92)	DRSC10187		83883	64690
Hsc70-5 (Heat shock protein 70 cognate 5)	DRSC07442		78307	68357
CG11586	DRSC08203		35340	36617
Or85e (retired record)	DRSC16768		63877	57343
vtd (verthandi)	DRSC20839		2.98e5	2.78e5
Pen (Pendulin)	DRSC03396		1.01e5	70777
CG6357	DRSC06979		64063	51367
CG34428	DRSC10119		93423	1.52e5
ImpE1 (Ecdysone-inducible gene E1)	DRSC11195		86760	87663
ImpE1 (Ecdysone-inducible gene E1)	DRSC11196		71937	73443
Cad87A (Cadherin 87A)	DRSC16161		47943	22053
CG31219	DRSC15140		57600	58700
Rack1 (Receptor of activated protein kinase C 1)	DRSC03405		41097	77857
CG34289	DRSC13625		2.20e5	2.60e5
CG13313	DRSC09984		64440	78223
CG7968	DRSC01903		81210	81290
Toll-6	DRSC11304		77127	51943
loco (locomotion defects)	DRSC15202		61870	81830
loco (locomotion defects)	DRSC16989		45850	37520
CG9837	DRSC16573		55487	59703
Sema1a (Semaphorin 1a)	DRSC03433		41837	68837
Prx1 (Peroxiredoxin 1)	DRSC10741		62477	51797
snz (snazarus)	DRSC17969		27000	40220
CG12164	DRSC06115		65433	66803
CG30412	DRSC04564		66290	68413
bnl (branchless)	DRSC13377		1.85e5	1.78e5
bnl (branchless)	DRSC16913		31417	34450
rhea	DRSC11300		82727	73243
CG17111	DRSC15174		1.05e5	79600
Blos2	DRSC10147		68770	78137
Tet (Ten-Eleven Translocation (TET) family protein)	DRSC08550		84423	71510
hiw (highwire)	DRSC20338		3.26e5	3.12e5
hiw (highwire)	DRSC20339		3.44e5	3.06e5
Cpsf73 (Cleavage and polyadenylation specificity factor 73)	DRSC16291		72240	89960
retm (real-time)	DRSC03252		89810	62217
AttA (Attacin-A)	DRSC05926		97123	49527
Rpt3R (Regulatory particle triple-A ATPase 3-related)	DRSC16501		49760	55657
ppk11 (pickpocket 11)	DRSC02737		39030	58710
CG3618	DRSC11746		19387	14470
CG13560	DRSC04198		55340	48813
CG6454	DRSC16044		51107	49520
mh (maternal haploid)	DRSC20168		2.90e5	3.08e5
CG1161	DRSC12180		36073	38520
cactin	DRSC20576		3.79e5	4.71e5
CG6685	DRSC10695		76697	64190
CG10510	DRSC11614		34473	39137
CG8170	DRSC07087		50203	62043
CG15446	DRSC20518		3.38e5	3.57e5
CG30127 (retired record)	DRSC05785		1.11e5	81010
CG30127 (retired record)	DRSC05786		1.18e5	65517
CG13868	DRSC06427		52723	66560
RhoGAP71E (Rho GTPase activating protein at 71E)	DRSC10232		30403	19937
RhoGAP71E (Rho GTPase activating protein at 71E)	DRSC10837		28487	29230
RhoGAP71E (Rho GTPase activating protein at 71E)	DRSC10838		74183	75353
CG13965	DRSC02307		45873	50540
Snx1 (Sorting nexin 1)	DRSC00531		39113	43643
CG5171	DRSC02823		1.25e5	1.00e5
beta-Spec (beta Spectrin)	DRSC20311		2.73e5	3.00e5
CG13601	DRSC14604		48697	63923
Acp76A (Accessory gland protein 76A)	DRSC09665		66333	55550
CYTB (retired record)	DRSC21272		2.18e5	2.21e5
ftz-f1 (ftz transcription factor 1)	DRSC11347		54100	34107
CG1288	DRSC12538		57230	60677
stumps	DRSC13045		1.75e5	1.79e5
stumps	DRSC15332		48300	42990
stumps	DRSC17073		87780	38550
Inx5 (Innexin 5)	DRSC20051		2.89e5	3.60e5
Nep3 (Neprilysin 3)	DRSC20685		3.40e5	3.27e5
Chpf (Chondroitin polymerizing factor)	DRSC19491		3.51e5	3.50e5
CG9021	DRSC03128		1.19e5	74093
Liprin-gamma	DRSC04093		1.88e5	2.11e5
CG9030	DRSC20139		4.20e5	3.45e5
CG15221	DRSC19659		3.65e5	3.51e5
ppk (pickpocket)	DRSC03595		41120	52503
NPFR (Neuropeptide F receptor)	DRSC12173		74790	66213
CG9981	DRSC20225		2.78e5	2.90e5
mRpL3 (mitochondrial ribosomal protein L3)	DRSC20100		3.61e5	3.13e5

Entries above whose target name starts with A or a (2):
Target gene	DRSC id	SD above plate mean	raw ATP luminescence, replicate 1	raw ATP luminescence, replicate 2
AttA (Attacin-A)	DRSC05926		97123	49527
Acp76A (Accessory gland protein 76A)	DRSC09665		66333	55550
